Reference: publication doi:10.1101/2020.03.09.983338
Results are given in words; binding and its absence hold for the method and conditions named. In cells and extracts the contact can be indirect. Some binding calls cover weakened binding; strength is not graded here. Sequences can lack the tags named with a protein.

By UniProt entry, the sequences of proteins in these tests, tags left out.
UniProt Q9Y3Z3: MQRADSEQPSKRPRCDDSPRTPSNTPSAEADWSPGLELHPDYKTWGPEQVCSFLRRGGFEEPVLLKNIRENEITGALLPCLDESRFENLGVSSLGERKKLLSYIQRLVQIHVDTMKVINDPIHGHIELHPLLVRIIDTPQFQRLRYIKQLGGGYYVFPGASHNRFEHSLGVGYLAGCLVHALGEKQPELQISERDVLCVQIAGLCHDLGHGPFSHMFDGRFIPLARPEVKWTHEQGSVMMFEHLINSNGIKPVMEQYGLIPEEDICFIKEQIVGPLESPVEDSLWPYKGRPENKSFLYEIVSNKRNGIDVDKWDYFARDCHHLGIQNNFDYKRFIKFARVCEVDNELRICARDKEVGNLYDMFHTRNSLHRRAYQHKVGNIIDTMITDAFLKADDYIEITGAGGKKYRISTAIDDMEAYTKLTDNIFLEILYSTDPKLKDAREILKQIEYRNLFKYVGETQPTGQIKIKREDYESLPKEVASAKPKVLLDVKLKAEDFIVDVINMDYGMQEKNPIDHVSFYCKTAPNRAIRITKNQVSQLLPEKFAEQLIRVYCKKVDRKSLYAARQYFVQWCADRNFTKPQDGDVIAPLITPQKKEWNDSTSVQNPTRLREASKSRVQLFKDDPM

Experiments:
[1] = target: T1, HA-OGT (O-GlcNAc transferase) (UniProt O15294); experiment: co-IP
T1 sequence: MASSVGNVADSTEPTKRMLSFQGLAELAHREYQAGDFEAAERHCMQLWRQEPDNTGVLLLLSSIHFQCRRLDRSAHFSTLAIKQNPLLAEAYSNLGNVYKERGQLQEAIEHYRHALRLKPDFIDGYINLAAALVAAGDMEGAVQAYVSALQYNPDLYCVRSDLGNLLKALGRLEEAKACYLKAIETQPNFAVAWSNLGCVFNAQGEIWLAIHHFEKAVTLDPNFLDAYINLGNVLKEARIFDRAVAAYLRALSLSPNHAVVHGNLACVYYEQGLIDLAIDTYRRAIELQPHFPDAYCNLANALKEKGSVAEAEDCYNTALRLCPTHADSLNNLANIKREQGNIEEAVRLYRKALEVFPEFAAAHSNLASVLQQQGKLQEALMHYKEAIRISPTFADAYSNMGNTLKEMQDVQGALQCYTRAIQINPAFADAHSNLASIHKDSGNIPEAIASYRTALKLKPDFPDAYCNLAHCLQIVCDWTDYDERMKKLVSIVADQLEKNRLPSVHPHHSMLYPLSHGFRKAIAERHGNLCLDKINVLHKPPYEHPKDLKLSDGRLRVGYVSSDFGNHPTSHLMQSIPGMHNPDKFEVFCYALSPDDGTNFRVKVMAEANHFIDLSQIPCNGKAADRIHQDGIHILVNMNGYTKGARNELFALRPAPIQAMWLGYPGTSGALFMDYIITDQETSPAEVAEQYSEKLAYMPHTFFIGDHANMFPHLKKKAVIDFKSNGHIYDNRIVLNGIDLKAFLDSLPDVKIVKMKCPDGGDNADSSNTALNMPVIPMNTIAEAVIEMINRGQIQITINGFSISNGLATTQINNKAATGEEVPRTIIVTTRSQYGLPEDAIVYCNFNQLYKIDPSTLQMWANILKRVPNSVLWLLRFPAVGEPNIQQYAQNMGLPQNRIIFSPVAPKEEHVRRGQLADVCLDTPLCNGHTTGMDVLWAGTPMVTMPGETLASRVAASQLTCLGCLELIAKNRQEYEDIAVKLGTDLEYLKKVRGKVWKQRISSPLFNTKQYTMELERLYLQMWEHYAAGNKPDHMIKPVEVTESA

[2] = target: HA-SAMHD1 (sterile alpha motif and histidine/aspartic acid domain-containing protein 1) (UniProt Q9Y3Z3); experiment: co-IP

With Flag-SAMHD1 (from UniProt Q9Y3Z3 1-626) the binding [1] was “binds”.

B1: Flag-OGT (O-GlcNAc transferase) (enzyme, UniProt O15294 1-1046)
chain: T1 sequence
With B1 the binding [2] was “binds”.
